Source: US20240174674A1, “NITROGEN-CONTAINING POLYCYCLIC FUSED RING COMPOUND, PHARMACEUTICAL COMPOSITION THEREOF, PREPARATION METHOD THEREFOR, AND USE THEREOF” (APPLIED PHARMACEUTICAL SCIENCE, INC., priority 2021, published 2024)
For at least one compound, name, drawing or mass did not settle the structure.

The chains behind the UniProt entries cited, without tags or fusion partners. Residues count along the entry.
UniProt P07949, 29-1114 G810R: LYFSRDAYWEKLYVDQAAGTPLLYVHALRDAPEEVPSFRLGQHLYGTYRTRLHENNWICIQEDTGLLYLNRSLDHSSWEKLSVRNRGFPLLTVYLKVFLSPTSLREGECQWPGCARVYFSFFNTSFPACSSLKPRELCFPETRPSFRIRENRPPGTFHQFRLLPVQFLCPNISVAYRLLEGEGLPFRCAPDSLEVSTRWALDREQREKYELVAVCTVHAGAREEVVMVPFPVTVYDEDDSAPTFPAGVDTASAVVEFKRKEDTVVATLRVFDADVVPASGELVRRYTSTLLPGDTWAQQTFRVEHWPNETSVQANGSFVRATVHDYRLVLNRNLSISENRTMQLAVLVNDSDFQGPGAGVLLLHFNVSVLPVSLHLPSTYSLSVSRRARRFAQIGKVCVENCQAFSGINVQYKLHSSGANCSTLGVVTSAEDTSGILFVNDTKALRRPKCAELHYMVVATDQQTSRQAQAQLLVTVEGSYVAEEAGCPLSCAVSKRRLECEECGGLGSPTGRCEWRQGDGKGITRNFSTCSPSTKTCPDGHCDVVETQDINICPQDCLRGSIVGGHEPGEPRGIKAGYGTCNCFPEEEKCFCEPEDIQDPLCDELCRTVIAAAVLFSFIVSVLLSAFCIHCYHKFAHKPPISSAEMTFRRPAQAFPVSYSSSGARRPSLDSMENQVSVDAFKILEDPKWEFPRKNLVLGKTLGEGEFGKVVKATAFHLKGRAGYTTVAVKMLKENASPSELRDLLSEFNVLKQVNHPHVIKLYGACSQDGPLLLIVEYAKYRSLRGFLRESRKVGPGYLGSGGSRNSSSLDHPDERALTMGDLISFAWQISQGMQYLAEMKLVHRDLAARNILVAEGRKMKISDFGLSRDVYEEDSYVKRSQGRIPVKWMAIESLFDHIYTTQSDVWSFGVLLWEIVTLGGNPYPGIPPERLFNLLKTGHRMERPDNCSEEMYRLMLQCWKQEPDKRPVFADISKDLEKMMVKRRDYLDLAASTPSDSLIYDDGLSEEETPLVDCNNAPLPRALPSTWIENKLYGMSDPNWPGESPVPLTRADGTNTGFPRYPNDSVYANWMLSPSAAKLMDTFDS
UniProt P07949, 29-1114: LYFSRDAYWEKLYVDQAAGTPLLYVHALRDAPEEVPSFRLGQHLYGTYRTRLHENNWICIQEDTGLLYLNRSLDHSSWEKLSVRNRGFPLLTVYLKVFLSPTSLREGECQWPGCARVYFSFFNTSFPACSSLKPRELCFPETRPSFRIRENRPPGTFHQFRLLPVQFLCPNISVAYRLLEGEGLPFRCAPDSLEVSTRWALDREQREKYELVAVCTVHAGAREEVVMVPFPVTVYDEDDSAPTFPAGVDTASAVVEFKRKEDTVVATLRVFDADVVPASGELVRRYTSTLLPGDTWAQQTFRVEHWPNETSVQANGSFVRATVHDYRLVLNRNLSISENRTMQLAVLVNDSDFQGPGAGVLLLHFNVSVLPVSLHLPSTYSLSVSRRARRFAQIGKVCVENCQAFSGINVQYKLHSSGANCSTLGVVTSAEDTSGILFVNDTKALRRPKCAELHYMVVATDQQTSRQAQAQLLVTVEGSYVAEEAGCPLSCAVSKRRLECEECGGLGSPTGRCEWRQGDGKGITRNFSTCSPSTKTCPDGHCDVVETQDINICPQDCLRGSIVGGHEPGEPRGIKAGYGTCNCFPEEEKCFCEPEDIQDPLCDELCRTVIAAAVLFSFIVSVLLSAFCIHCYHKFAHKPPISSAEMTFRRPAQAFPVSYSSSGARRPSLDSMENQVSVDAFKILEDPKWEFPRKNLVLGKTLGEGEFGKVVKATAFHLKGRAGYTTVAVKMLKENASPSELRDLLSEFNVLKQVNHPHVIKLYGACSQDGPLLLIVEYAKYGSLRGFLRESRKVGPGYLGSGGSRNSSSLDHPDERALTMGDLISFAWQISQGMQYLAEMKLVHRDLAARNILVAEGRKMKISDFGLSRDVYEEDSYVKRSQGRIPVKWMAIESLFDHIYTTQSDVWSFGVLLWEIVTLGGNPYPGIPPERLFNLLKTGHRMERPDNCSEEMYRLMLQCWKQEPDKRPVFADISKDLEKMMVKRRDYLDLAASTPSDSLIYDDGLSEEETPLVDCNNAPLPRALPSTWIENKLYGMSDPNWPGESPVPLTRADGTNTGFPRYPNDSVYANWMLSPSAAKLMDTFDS
UniProt P07949, 29-1114 V804M: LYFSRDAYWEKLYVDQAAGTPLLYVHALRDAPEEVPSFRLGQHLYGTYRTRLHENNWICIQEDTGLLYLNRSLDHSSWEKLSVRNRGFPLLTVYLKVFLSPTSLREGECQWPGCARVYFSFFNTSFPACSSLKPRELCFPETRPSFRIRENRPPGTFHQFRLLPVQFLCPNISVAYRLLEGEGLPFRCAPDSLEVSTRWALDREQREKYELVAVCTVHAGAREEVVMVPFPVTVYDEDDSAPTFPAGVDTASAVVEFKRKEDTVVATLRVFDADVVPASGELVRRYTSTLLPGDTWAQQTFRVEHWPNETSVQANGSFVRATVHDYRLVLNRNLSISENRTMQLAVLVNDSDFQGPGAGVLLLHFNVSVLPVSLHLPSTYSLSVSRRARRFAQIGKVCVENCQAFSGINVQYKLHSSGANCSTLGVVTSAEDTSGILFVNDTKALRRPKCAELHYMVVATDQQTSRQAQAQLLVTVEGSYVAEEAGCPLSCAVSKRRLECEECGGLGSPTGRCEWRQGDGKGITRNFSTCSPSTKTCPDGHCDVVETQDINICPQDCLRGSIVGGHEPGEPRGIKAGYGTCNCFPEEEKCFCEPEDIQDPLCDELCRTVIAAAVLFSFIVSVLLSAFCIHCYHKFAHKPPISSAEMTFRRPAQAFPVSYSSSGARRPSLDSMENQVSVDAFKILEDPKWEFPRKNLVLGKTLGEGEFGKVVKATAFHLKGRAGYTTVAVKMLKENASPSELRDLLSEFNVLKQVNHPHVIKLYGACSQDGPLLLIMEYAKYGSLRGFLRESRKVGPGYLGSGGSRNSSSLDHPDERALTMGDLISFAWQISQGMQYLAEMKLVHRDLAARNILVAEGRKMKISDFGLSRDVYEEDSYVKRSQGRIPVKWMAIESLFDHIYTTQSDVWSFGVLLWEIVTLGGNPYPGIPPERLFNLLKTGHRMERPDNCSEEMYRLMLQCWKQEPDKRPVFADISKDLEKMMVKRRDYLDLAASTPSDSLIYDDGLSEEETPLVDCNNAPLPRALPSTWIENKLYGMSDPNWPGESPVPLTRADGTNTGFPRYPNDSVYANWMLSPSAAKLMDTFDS

Columns and labels:
RET G810R = RET G810R (Homo sapiens (Human), UniProt P07949, G810R); test: HTRF KinEASE-TK kinase activity test, RET G810R; conditions: fold versus selpercatinib (LOXO-292)
RET-wt = RET-wt (Homo sapiens (Human), UniProt P07949); test: HTRF KinEASE-TK kinase activity test, RET-wt; type: biochemical; conditions: versus cabozantinib
RET V804M = RET V804M (Homo sapiens (Human), UniProt P07949, V804M); test: HTRF KinEASE-TK kinase activity test, RET V804M; type: biochemical; conditions: versus cabozantinib

Compound | inhibitory activity against RET G810R relative to that of selpercatinib (LOXO-292) (RET G810R) [times] | inhibitory activity against RET-wt compared to that of cabozantinib (RET-wt) | inhibitory activity against RET V804M compared to that of cabozantinib (RET V804M)
CCOc1cc(-c2ccc(N3CC4CC(C3)N4Cc3ccc(OC)nc3)nc2)c2c3cc[nH]c3nn2c1 [Compound 297, 6-ethoxy-4-(6-(6-((6-methoxypyridin-3-yl)methyl)-3,6-diazabicyclo[3.1.1]heptan-3-yl)pyridin-3-yl)-1H-pyrrolo[2′,3′:3,4]pyrazolo[1,5-α]pyridine] | ≥ 10 |  | 
CCOc1cc(-c2ccc(N3C[C@H](Oc4ccccn4)[C@@H](N)C3)nc2)c2c3cn[nH]c3nn2c1 [Compound 31, (3S,4S)-1-(5-(6-ethoxy-1H-pyrazolo[3′,4′:3,4]pyrazolo[1,5-α]pyridin-4-yl)pyridin-2-yl)-4-(pyridin-2-yloxy)pyrrolidin-3-amine] | ≥ 10 |  | 
CCOc1cc(-c2ccc(N3CC[C@H](NC(=O)CC(C)C)[C@H](O)C3)nc2)c2c3cn[nH]c3nn2c1 [Compound 40, N-((3R,4S)-1-(5-(6-ethoxy-1H-pyrazolo[3′,4′:3,4]pyrazolo[1,5-α]pyridin-4-yl)pyridin-2-yl)-3-hydroxypiperidin-4-yl)-3-methylbutanamide] | ≥ 10 | significantly superior | significantly superior
